Here are results for 1 substance from paper PMC4726324 (Scientific Reports, 2016).

The nature of the data set: general procedure: Fmoc solid-phase peptide synthesis; 2-chloro-chlorotrityl resin; HBTU/DIPEA. The settings on record: coupling step.

For the substance “cyclo[G^23FF-Nva(δN3)-TP-Prg-T^30]-insulin”, the step yield was 9.8%.
